This note sets out measurements from PubChem BioAssay AID256 (DTP/NCI, 2004).

The list is a part of this screen's results and no random one: it gathers some chemical classes. Other doses and runs of a compound may be missing. T/C: endpoint of the treated group in % of that of the vehicle group. Some doses have a count of surviving animals in place of a T/C: the source holds a T/C of zero for them, seemingly a mark for toxic or unscored doses. Survivors were counted at the toxicity check, usually on the fifth day, unless a day is given; later deaths do not show. Schedule codes are those of the source, read here as Q, the interval in days (D) or hours (H), X, the number of doses. Where survival is the endpoint, the PubChem record calls one and a half times the control and up active, and a quarter to a half above the control has no call in these data; cut-offs in other NCI protocols can differ. Some entries show no survivor count and are marked so; the dose need not have been tolerated. Some T/C values are followed by the survivors on the day toxicity was checked, most often the fifth; where neither a count nor a note follows, no animal had died by that day. Some complexes appear as separate parts, the way the source draws them; their charges need not add up.

This test deals with CD2F1 mice, L1210 leukemia ip, survival T/C. The test can be described thus: NCI In Vivo Anticancer Drug Screen. Data for tumor model L1210 Leukemia (intraperitoneal) in CD2F1 (CDF1) mice. The note with it: T/C endpoint: mean survival time, higher T/C = longer survival. In outline:
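Mice carrying a transplanted tumor received test compound or vehicle alone. The value is the measurement in the treated group divided by that in the vehicle-treated control group.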

The mark [1] stands for this setting: dose: 100.0 mg/kg/injection, schedule: Q04DX003 (ip), vehicle: saline.
Where [2] appears, read: dose: 200.0 mg/kg/injection, schedule: Q04DX003 (ip), vehicle: saline.
The mark [3] stands for this setting: dose: 400.0 mg/kg/injection, schedule: Q04DX003 (ip), vehicle: saline.
[4] abbreviates: dose: 75.0 mg/kg/injection, schedule: Q01DX001 (ip), vehicle: saline.
[5] abbreviates: dose: 150.0 mg/kg/injection, schedule: Q01DX001 (ip), vehicle: saline.
Setting [6] is: dose: 15.62 mg/kg/injection, schedule: Q01DX001 (ip), vehicle: DMSO.
The mark [7] stands for this setting: dose: 62.5 mg/kg/injection, schedule: Q01DX001 (ip), vehicle: DMSO.
[8] abbreviates: dose: 125.0 mg/kg/injection, schedule: Q01DX001 (ip), vehicle: DMSO.
Where [9] appears, read: dose: 250.0 mg/kg/injection, schedule: Q01DX001 (ip), vehicle: DMSO.
The mark [10] stands for this setting: dose: 500.0 mg/kg/injection, schedule: Q01DX001 (ip), vehicle: DMSO.
Where [11] appears, read: dose: 200.0 mg/kg/injection, schedule: Q01DX001 (ip), vehicle: DMSO.
[12] abbreviates: dose: 400.0 mg/kg/injection, schedule: Q01DX001 (ip), vehicle: DMSO.

As to `O=[As](O)(O)c1ccc([As](=O)(O)O)cc1`, the T/C (dose: 50.0 mg/kg/injection, schedule: Q01DX009 (ip), vehicle: Klucel (hydroxypropylcellulose) (HPC)) was 97 % of control and the T/C (dose: 100.0 mg/kg/injection, schedule: Q01DX009 (ip), vehicle: Klucel (hydroxypropylcellulose) (HPC)) is 94 % of control. Also, the survivor count (dose: 200.0 mg/kg/injection, schedule: Q01DX009 (ip), vehicle: Klucel (hydroxypropylcellulose) (HPC)) was 1 of 3.

On to `NC1CCCCC1.O=C(O)CCOP(=O)(O)N(CCCl)CCCl`, for which the T/C by setting is: (dose: 25.0 mg/kg/injection, schedule: Q04DX003 (ip), vehicle: saline) 107 % of control; (dose: 50.0 mg/kg/injection, schedule: Q04DX003 (ip), vehicle: saline) 101 % of control; under setting [1], 103 % of control; under setting [2], 110 % of control; under setting [3], 133 % of control.

With `COC(=O)C1(C)COP(=O)(N2CCCC2)OC1` (stereo not given), the T/C is, setting by setting: under setting [4], 107 % of control; under setting [5], 108 % of control; (dose: 300.0 mg/kg/injection, schedule: Q01DX001 (ip), vehicle: saline) 103 % of control.

On to `COc1c(OC)c2c(C)c3ccccc3c(C)c2c2ccccc12.O=C1c2cc([N+](=O)[O-])ccc2-c2c1cc([N+](=O)[O-])cc2[N+](=O)[O-]`, for which the T/C is 90 % of control (dose: 100.0 mg/kg/injection, schedule: Q04DX002 (ip), vehicle: saline with Tween-80); 90 % of control (dose: 200.0 mg/kg/injection, schedule: Q04DX002 (ip), vehicle: saline with Tween-80); 90 % of control (dose: 400.0 mg/kg/injection, schedule: Q04DX002 (ip), vehicle: saline with Tween-80).

With `C=C1CNP(=O)(N(CCCl)CCCl)OC1` (stereo not given), the T/C was 120 % of control under setting [6]; 127 % of control (dose: 31.25 mg/kg/injection, schedule: Q01DX001 (ip), vehicle: DMSO); 125 % of control under setting [7]. Also, the survivor count is 0 of 6 under setting [8], 0 of 6 under setting [9] and 0 of 6 under setting [10].

Regarding `NCc1ccco1.O=[P+](O)Oc1ccccc1`, the T/C is, setting by setting: (dose: 100.0 mg/kg/injection, schedule: Q04DX003 (ip), vehicle: other) 93 % of control; (dose: 200.0 mg/kg/injection, schedule: Q04DX003 (ip), vehicle: other) 100 % of control; (dose: 400.0 mg/kg/injection, schedule: Q04DX003 (ip), vehicle: other) 96 % of control.

Take `O=[N+]([O-])N1CCN([N+](=O)[O-])CC1`: the T/C (dose: 100.0 mg/kg/injection, schedule: Q01DX001 (ip), vehicle: saline) was 100 % of control [survivor count not shown].

Regarding `O=P1(N(CCCl)CCCl)NCC(Br)CO1` (stereo not given), the T/C runs as follows: (dose: 62.5 mg/kg/injection, schedule: Q01DX001 (ip), vehicle: water) 110 % of control; (dose: 125.0 mg/kg/injection, schedule: Q01DX001 (ip), vehicle: water) 114 % of control; (dose: 250.0 mg/kg/injection, schedule: Q01DX001 (ip), vehicle: water) 110 % of control; (dose: 500.0 mg/kg/injection, schedule: Q01DX001 (ip), vehicle: water) 146 % of control.

Consider `O=P1(N(CCCl)CCCl)NC(CO)CCO1` (stereo not given), for which the T/C is 101 % of control (dose: 12.5 mg/kg/injection, schedule: Q01DX001 (ip), vehicle: DMSO); 107 % of control (dose: 25.0 mg/kg/injection, schedule: Q01DX001 (ip), vehicle: DMSO); 101 % of control (dose: 50.0 mg/kg/injection, schedule: Q01DX001 (ip), vehicle: DMSO); 102 % of control (dose: 100.0 mg/kg/injection, schedule: Q01DX001 (ip), vehicle: DMSO); 101 % of control under setting [11]; 102 % of control under setting [12]. Further, for the setting “dose: 800.0 mg/kg/injection, schedule: Q01DX001 (ip), vehicle: DMSO”, the T/C is 111 % of control.

As for `CC(=O)C(C)COP(=O)(N(CCCl)CCCl)N1CC1` (stereo not given), the T/C was 104 % of control under setting [6]; 103 % of control (dose: 31.3 mg/kg/injection, schedule: Q01DX001 (ip), vehicle: DMSO); 108 % of control under setting [7]; 129 % of control under setting [8]; 123 % of control [5 of 6 alive] under setting [9]. Besides, the survivor count under setting [10] is listed as 0 of 6.

Regarding `O=[N+]([O-])c1ccc(S(=O)(=O)c2ccc([N+](=O)[O-])cc2[N+](=O)[O-])c([N+](=O)[O-])c1`, the T/C was 100 % of control (dose: 75.0 mg/kg/injection, schedule: Q01DX001 (ip), vehicle: other) and 108 % of control [5 of 6 alive] (dose: 150.0 mg/kg/injection, schedule: Q01DX001 (ip), vehicle: other). For the setting “dose: 300.0 mg/kg/injection, schedule: Q01DX001 (ip), vehicle: other”, the survivor count is on record as 0 of 6.

On to `O=[N+]([O-])c1cc([N+](=O)[O-])c(O)c([N+](=O)[O-])c1.OCCCN=C1CCCCC1`, for which the T/C is 98 % of control [survivor count not shown] under setting [4] and 97 % of control [survivor count not shown] under setting [5].

Regarding `CSc1ccc(Nc2c([N+](=O)[O-])cc([N+](=O)[O-])cc2[N+](=O)[O-])cc1`, the T/C is, setting by setting: (dose: 100.0 mg/kg/injection, schedule: Q04DX003 (ip), vehicle: saline with Tween-80) 89 % of control; (dose: 200.0 mg/kg/injection, schedule: Q04DX003 (ip), vehicle: saline with Tween-80) 87 % of control; (dose: 400.0 mg/kg/injection, schedule: Q04DX003 (ip), vehicle: saline with Tween-80) 102 % of control.

`O=P(OCCCO)(N(CCCl)CCCl)N1CC1` (stereo not given): the T/C by setting is: (dose: 25.0 mg/kg/injection, schedule: Q01DX001 (ip), vehicle: DMSO, evaluated on day 35) 97 % of control; (dose: 25.0 mg/kg/injection, schedule: Q01DX001 (ip), vehicle: DMSO, evaluated on day 45) 111 % of control; (dose: 50.0 mg/kg/injection, schedule: Q01DX001 (ip), vehicle: DMSO, evaluated on day 35) 100 % of control; (dose: 50.0 mg/kg/injection, schedule: Q01DX001 (ip), vehicle: DMSO, evaluated on day 45) 138 % of control; (dose: 100.0 mg/kg/injection, schedule: Q01DX001 (ip), vehicle: DMSO, evaluated on day 35) 106 % of control; (dose: 100.0 mg/kg/injection, schedule: Q01DX001 (ip), vehicle: DMSO, evaluated on day 45) 156 % of control [5 of 6 alive]. The T/C reads like this: under setting [11], 135 % of control; under setting [12], 131 % of control [5 of 6 alive]. Moreover, the survivor count is, setting by setting: under setting [11], 0 of 6; under setting [12], 0 of 6.

On to `Cn1/c(=N/Nc2c([N+](=O)[O-])cc([N+](=O)[O-])cc2[N+](=O)[O-])sc2ccccc21`, for which the T/C is 101 % of control [survivor count not shown] under setting [1], 100 % of control [survivor count not shown] under setting [2] and 95 % of control [survivor count not shown] under setting [3].

For `CCCCC(CC)CO[P+](=O)OCC(CC)CCCC` (stereo not given), the T/C is 101 % of control (dose: 50.0 mg/kg/injection, schedule: Q01DX009 (ip), vehicle: saline with Tween-80) and 90 % of control (dose: 100.0 mg/kg/injection, schedule: Q01DX009 (ip), vehicle: saline with Tween-80). Besides, the survivor count (dose: 200.0 mg/kg/injection, schedule: Q01DX009 (ip), vehicle: saline with Tween-80) is 1 of 6.
